From patent publication US20040110684A1 come the findings set out here.

This assay deals with T1, endothelial nitric oxide synthase (eNOS), endogenous, rat aorta-derived endothelial cells (AoECs) (rat) (UniProt Q62600).
T1 sequence (looked up): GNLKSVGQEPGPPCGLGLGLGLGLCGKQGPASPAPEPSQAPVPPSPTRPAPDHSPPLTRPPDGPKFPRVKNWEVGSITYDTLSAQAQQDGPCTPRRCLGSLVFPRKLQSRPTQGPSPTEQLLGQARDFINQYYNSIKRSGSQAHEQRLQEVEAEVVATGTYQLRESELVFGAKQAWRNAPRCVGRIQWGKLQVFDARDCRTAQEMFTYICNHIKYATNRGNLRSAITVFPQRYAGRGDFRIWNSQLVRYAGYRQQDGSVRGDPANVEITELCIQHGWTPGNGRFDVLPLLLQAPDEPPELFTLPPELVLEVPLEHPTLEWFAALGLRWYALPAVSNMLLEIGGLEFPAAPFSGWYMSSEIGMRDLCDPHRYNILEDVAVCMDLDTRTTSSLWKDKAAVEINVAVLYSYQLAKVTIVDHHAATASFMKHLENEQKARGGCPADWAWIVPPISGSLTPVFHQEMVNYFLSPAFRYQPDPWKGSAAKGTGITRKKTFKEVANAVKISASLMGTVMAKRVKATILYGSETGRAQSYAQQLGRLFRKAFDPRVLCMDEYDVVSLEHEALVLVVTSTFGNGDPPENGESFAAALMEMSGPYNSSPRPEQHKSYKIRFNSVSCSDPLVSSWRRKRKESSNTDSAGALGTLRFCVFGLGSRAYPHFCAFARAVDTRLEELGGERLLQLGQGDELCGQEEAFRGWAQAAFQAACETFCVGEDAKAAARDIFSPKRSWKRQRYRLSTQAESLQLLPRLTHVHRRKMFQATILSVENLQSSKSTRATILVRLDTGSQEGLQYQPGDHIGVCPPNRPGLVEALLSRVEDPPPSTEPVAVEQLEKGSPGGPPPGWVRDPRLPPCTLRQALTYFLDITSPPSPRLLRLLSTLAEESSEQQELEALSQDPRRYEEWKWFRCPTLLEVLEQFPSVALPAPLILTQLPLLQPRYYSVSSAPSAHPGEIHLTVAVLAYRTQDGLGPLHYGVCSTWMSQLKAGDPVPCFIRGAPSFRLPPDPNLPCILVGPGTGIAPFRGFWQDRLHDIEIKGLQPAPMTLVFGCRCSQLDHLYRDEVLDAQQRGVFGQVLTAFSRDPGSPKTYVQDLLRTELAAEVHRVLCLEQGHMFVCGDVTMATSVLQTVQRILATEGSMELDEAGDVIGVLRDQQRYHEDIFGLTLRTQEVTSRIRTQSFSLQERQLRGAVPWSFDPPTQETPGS
Briefly: co-IP with eNOS or caveolin antibodies, immunoblot, AoEC lysates.

These are yes or no findings as the source states them, for the method shown. In cells and extracts the contact can be indirect. Some results given as binding are weak or reduced against the parent protein; the word gives no strength.

B1: caveolin, endogenous, rat aorta-derived endothelial cells (AoECs) (protein, UniProt P41350 2-178, looked up)
chain: SGGKYVDSEGHLYTVPIREQGNIYKPNNKAMADEVNEKQVYDAHTKEIDLVNRDPKHLNDDVVKIDFEDVIAEPEGTHSFDGIWKASFTTFTVTKYWFYRLLSTIFGIPMALIWGIYFAILSFLHIWAVVPCIKSFLIEIQCISRVYSIYVHTFCDPLFEAIGKIFSNIRISTQEEI
For B1, the binding result is “binds”.
